Two substances from US8222202B2 (priority 2006, dated 2012) can be followed below.

Series [1] is described as follows: Boc solid-phase peptide synthesis; 4-methyl-benzhydrylamine resin; DIC/HOBt (compound 1); DCC, PyBOP or DIC/HOBt (compound 4). As to conditions: whole synthesis, scale 0.4 mmol.
The nature of series [2]: general procedure: peptide synthesis; Tentagel-S-RAM resin (compound 1); 4-methyl-benzhydrylamine resin (compound 4); DIC/HOBt (compound 1); DCC, PyBOP or DIC/HOBt (compound 4). As to conditions: whole synthesis, Analytical HPLC, Vydac C18, scale of the general procedure 0.5 mmol (compound 1), 0.4 mmol (compound 4).
Series [3] is described as follows: Fmoc solid-phase peptide synthesis; Tentagel-S-RAM; DIC/HOBt (compound 1); DCC, PyBOP or DIC/HOBt (compound 4). As to conditions: whole synthesis, scale 0.5 mmol, acetate.

As for [Phe^2,Asn(Et)^4, Dbu^8]VT, in series [1], the isolated yield entry was “˜10%”. The same substance came in with an isolated mass in series [1] (acetate) of 41 mg. Besides, the “final HPLC purity” value in series [2] is given as 100%.
Consider [Phe^2,Hgn^4,Orn(i-Pr)^8]VT, for which the isolated mass in series [3] came to 168 mg. Moreover, the “final HPLC purity” value in series [2] is 98.8%.
